Assay results taken from patent US8178089B2, “Neuronal progenitors from feeder-free human embryonic stem cell culture” (The University of Georgia Research Foundation, Inc, priority 2004, dated 2012).
At least one structure is not confirmed: it was looked up by name or label, or the drawing left a doubt.

System: HLBX9 expression
Assay: HLBX9 (HB9) gene expression by real time RT-PCR in NEP
Assay type: cell-based, human
Conditions: early and late NEPs

For `CC1=C(/C=C/C(C)=C/C=C/C(C)=C/C(=O)O)C(C)(C)CCC1` [RA, retinoic acid], the HB9 expression was “Increased”.
